Measurements published in PMC8350375.
Results are given in words; binding and its absence hold for the method and conditions named. Binding seen in cells or lysates may run through a third protein. Binding calls can cover weak binding; strength is not graded here.

Sequences of proteins named here, by UniProt entry; tags and fusion partners are left off. A change or cut given only in a name is not applied to a line headed by its entry.
UniProt P62815: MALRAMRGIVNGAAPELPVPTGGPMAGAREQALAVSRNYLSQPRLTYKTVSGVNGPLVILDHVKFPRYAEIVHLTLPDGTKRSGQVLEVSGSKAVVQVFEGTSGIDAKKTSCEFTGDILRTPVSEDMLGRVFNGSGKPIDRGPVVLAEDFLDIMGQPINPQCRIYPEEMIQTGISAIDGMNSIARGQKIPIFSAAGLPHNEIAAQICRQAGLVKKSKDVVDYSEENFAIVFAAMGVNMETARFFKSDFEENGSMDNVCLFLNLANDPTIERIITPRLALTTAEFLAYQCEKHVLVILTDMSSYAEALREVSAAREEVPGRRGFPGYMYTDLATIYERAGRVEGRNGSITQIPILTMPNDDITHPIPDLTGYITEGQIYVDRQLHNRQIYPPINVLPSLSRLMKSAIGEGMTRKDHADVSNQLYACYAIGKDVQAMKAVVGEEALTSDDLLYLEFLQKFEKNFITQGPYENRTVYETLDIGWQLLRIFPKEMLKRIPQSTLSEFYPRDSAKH
UniProt Q2I6B1: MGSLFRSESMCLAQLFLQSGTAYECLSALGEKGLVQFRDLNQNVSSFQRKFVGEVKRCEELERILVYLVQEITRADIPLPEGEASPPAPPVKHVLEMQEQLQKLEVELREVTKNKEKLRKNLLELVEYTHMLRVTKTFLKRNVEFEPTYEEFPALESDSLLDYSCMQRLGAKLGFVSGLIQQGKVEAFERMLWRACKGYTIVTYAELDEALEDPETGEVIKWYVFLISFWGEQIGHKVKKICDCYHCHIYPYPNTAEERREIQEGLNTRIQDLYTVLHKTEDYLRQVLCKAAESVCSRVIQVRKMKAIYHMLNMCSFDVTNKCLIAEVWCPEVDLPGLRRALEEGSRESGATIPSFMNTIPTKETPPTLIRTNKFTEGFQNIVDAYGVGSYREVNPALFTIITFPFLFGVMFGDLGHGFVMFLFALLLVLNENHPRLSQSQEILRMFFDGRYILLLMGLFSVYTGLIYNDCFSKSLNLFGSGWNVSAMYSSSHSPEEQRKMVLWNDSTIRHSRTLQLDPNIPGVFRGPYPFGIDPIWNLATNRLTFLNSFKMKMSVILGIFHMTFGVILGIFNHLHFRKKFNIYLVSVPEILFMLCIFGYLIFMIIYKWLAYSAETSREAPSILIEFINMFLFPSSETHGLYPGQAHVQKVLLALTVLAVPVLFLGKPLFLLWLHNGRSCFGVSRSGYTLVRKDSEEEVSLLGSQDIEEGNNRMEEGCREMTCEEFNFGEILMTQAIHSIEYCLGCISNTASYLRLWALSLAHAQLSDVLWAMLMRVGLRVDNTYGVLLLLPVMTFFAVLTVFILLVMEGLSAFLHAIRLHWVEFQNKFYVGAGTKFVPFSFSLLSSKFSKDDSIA

Molecular target: v-ATPase B2 subunit (V1 subcomplex), rat heart (rat (endogenous in heart)) (UniProt P62815)
Experiment: co-IP; endogenous proteins in rat heart lysates; IP against V1-B2, V0-d1 or mTOR, western blot for mTOR, V0-a2, V1-B2, V0-d1; rats on LFD, HFD or HFD/H-KLR (HFD decreased, H-KLR restored the co-IP)

For “v-ATPase a2 subunit (V0 subcomplex), rat heart (from UniProt Q2I6B1)”, the binding was “binds”.
